In patent publication US20090042993A1, “IDENTIFICATION OF NOVEL POST-TRANSLATIONAL PROTEIN MODIFICATIONS” (priority 2007, published 2009) one finds binding data, which are given here for one molecule.

In the experiment the target is BACE1 (β-site APP cleaving enzyme 1), native form BACE1WT (human), P56817. In words: BACE1 immunopurified from total cell lysates, Western blot under reducing and non-reducing conditions. The settings on record: remark: other sources report otherwise. Background: Immunoblotting shows a protein as a band on a membrane.

These are yes or no findings as the source states them, for the method shown. Some entries that bind do so weakly or less than the wild type.

B1: BACE1 (β-site APP cleaving enzyme 1), native form BACE1WT, P56817 46-501 (enzyme, human, UniProt P56817 46-501, looked up)
chain: ETDEEPEEPGRRGSFVEMVDNLRGKSGQGYYVEMTVGSPPQTLNILVDTGSSNFAVGAAPHPFLHRYYQRQLSSTYRDLRKGVYVPYTQGKWEGELGTDLVSIPHGPNVTVRANIAAITESDKFFINGSNWEGILGLAYAEIARPDDSLEPFFDSLVKQTHVPNLFSLQLCGAGFPLNQSEVLASVGGSMIIGGIDHSLYTGSLWYTPIRREWYYEVIIVRVEINGQDLKMDCKEYNYDKSIVDSGTTNLRLPKKVFEAAVKSIKAASSTEKFPDGFWLGEQLVCWQAGTTPWNIFPVISLYLMGEVTNQSFRITILPQQYLRPVEDVATSQDDCYKFAISQSSTGTVMGAVIMEGFYVVFDRARKRIGFAVSACHVHDEFRTAAVEGPFVTLDMEDCGYNIPQTDESTLMTIAYVMAAICALFMLPLCLMVCQWRCLRCLRQQHDDFADDISLLK
As for B1, the binding entry was “binds”.
